Data set [1] in a line: Stabilization of multiple-extruded polypropylene at high temperature (melt index). The settings on record: with 0.05% Irganox 1010, 0.10% calcium stearate, Irgafos 168 0.100%, Sandostab P-EPQ 0.050%, Compound (301) 0.015%, mixtures 0.045% + 0.005%, measured at 230° C./2.16 kg.
Data set [2] is described as follows: Stabilization of multiple-extruded polypropylene (melt index). Particulars: 0.05% of compound with 0.05% Irganox 1010, 0.05% calcium stearate, 0.03% DHT 4A; extruded at 260, 270, 280° C.; measured at 230° C./2.16 kg; without compound 17.8.
The nature of data set [3]: Stabilization of polyethylene during processing (Brabender plastograph, torque). Particulars: 0.05 part compound with 0.05 part Irganox 1010 per 100 parts polyethylene; kneaded at 220° C. and 50 rpm; without compound 9.7.
A short description of data set [4]: Stabilization of polycarbonate (oven ageing at 135° C., yellowness index and transmission). Particulars: 2 mm polycarbonate plates, Irgafos 168 0.05%, Compound (301) 0.01%, Compound (314) 0.01%; for Yellowness index after 2000 hours at 135° C. / Transmission in % after 2000 hours at 135° C.: circulating air oven; for Yellowness index after 2000 hours at 135° C.: unstabilized 25.5; for Yellowness index prior to oven-ageing: unstabilized 4.1; for Transmission in % after 2000 hours at 135° C. / Transmission in % prior to oven-aging: at 450 nm; for Transmission in % after 2000 hours at 135° C.: unstabilized 76.2; for Transmission in % prior to oven-aging: unstabilized 84.8.

With `CC(C)(C)c1ccc(OP(Oc2ccc(C(C)(C)C)cc2C(C)(C)C)c2ccc(-c3ccc(P(Oc4ccc(C(C)(C)C)cc4C(C)(C)C)Oc4ccc(C(C)(C)C)cc4C(C)(C)C)cc3)cc2)c(C(C)(C)C)c1` [Sandostab ® P-EPQ, tetrakis(2,4-di-tert-butylphenyl)-4,4′-biphenylene diphosphonite], in data set [1], the “Melt index after 5 extrusions 280° C.” value turned out to be 6.4, the “Melt index after 5 extrusions 320° C.” value is reported as 24.1 and the “Melt index after 5 extrusions 340° C.” value is listed as 61.9.

For the compound `CC(C)(C)c1cc(C(C)(C)C)c2oc(N)c(-c3ccccc3)c2c1` [Compound (301), 2-amino-3-phenyl-5,7-di-tert-butyl-benzofurane], in data set [2], the “Melt index after 3 extrusions” value stood at 4.9. Besides, in data set [3], the “Time until increase in torque” value was 27.4 min. For the same compound, in data set [1], the “Melt index after 5 extrusions 280° C.” value was found to be 8.1, the “Melt index after 5 extrusions 320° C.” value is listed as 19.8 and the “Melt index after 5 extrusions 340° C.” value turned out to be 22.7. For the same compound, in data set [4], the “Yellowness index after 2000 hours at 135° C.” value (“Yellowness index … at 135° C.” below) is 16.6, the “Yellowness index prior to oven-ageing” value is 3.5, the “Transmission in % after 2000 hours at 135° C.” value (shortened to “Transmission in % … at 135° C.”) stood at 81.2% and the “Transmission in % prior to oven-aging” value is given as 85.9%.

As to `CC(C)(C)c1cc(C(C)(C)C)c2oc(N)c(-c3ccccn3)c2c1` [Compound (319)], the “Melt index after 3 extrusions” value in data set [2] amounted to 4.9.

On to `CC(C)(C)c1ccc(OP(Oc2ccc(C(C)(C)C)cc2C(C)(C)C)Oc2ccc(C(C)(C)C)cc2C(C)(C)C)c(C(C)(C)C)c1` [Irgafos ® 168, tris(2,4-di-tert-butylphenyl)phosphite, reference compound], for which, in data set [1], the “Melt index after 5 extrusions 280° C.” value was 9.8, the “Melt index after 5 extrusions 320° C.” value is on record as 44.0 and the “Melt index after 5 extrusions 340° C.” value turned out to be 80.4. Also, in data set [4], the “Yellowness index … at 135° C.” value amounted to 23.9, the “Yellowness index prior to oven-ageing” value is 3.5, the “Transmission in % … at 135° C.” value was 77.9% and the “Transmission in % prior to oven-aging” value came out at 84.8%.

Consider `Cc1cc(C(C)(C)C(C)C)c2oc(N)c(-c3ccccc3)c2c1` [Compound (307)], for which, in data set [3], the “Time until increase in torque” value is recorded as 27.3 min.

`CC(C)(C)c1cc(C(C)(C)C)c2oc(N)c(-c3ccc(C(F)(F)F)cc3)c2c1` [Compound (314)]: in data set [4], the “Yellowness index … at 135° C.” value is 15.5, the “Yellowness index prior to oven-ageing” value was determined as 3.5, the “Transmission in % … at 135° C.” value is reported as 81.5% and the “Transmission in % prior to oven-aging” value worked out at 85.9%.

As for `Cc1ccc(-c2c(N)oc3c(C(C)(C)C)cc(C(C)(C)C)cc23)cc1` [Compound (311)], the “Melt index after 3 extrusions” value in data set [2] was 4.9.

Turning to `Cc1cccc(-c2c(N)oc3c(C(C)(C)C)cc(C(C)(C)C)cc23)c1` [Compound (310)], the “Time until increase in torque” value in data set [3] is listed as 27.4 min.

Consider `CC(C)(C)c1cc(C(C)(C)C)c2oc(N)c(-c3cccc(C(F)(F)F)c3)c2c1` [Compound (313)], for which the “Melt index after 3 extrusions” value in data set [2] is 4.9.

Consider `Cc1ccc(-c2c(N)oc3c(C(C)(C)C)cc(C(C)(C)C)cc23)cc1C` [Compound (302), 2-amino-5,7-di-tert-butyl-3-(3,4-dimethylphenyl)-benzofurane], for which the “Melt index after 3 extrusions” value in data set [2] came to 4.9. In addition, the “Time until increase in torque” value in data set [3] is recorded as 27.4 min.

Consider `CC(C)(C)c1cc(C(C)(C)C)c2oc(N)c(-c3cccs3)c2c1` [Compound (320)], for which the “Time until increase in torque” value in data set [3] amounted to 27.3 min.

The values are drawn from patent US6586606B2, “Process for the preparation of 3-aryl-benzofuran-2-ones” (Ciba Specialty Chemicals Corporation, priority 2000, dated 2003).
